Measurements as given in PubChem BioAssay AID2417 (National Center for Advancing Translational Sciences (NCATS), 2010).
The whole screen tested about 140,000 compounds, of which about 4,300 (3.1%) were called active. This list was built around the results that the source calls inconclusive (neither active nor inactive); the mix of calls is not that of the screen.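 The calls were made as follows: active = readout at or below -70, meaning at least 70% loss of cells showing the perinucleolar compartment, a nuclear body marking cancer cells; inconclusive = readout between -30 and a set limit; inactive = the rest.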

Assay: High Content Assay for Compounds that inhibit the Assembly of the Perinucleolar Compartment;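 also: plate controls were DMSO wells for no effect and camptothecin positive control wells for full effect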
Conditions: PC3M PTB-GFP, PNC prevalence imaging, 16 h; at 10 µM; stronger effect = lower value
Method in brief: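 PC3M cells stably expressing PTB-GFP, 750–1000 cells/well, treated 16 h at 37 °C with compound (23 nl of library stock), in duplicate. After paraformaldehyde fixation and Hoechst stain, imaged at 20x; PNC prevalence scored by image analysis.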

Structure (SMILES)	activity change (PNC), negative = inhibition
CCn1nnc(NC(=O)c2cccnc2Cl)n1	inactive: 42.3%
CC(Sc1ncc(C#N)c(N)n1)C(=O)Nc1ccccc1 (configuration not stated)	active: -112%
Cc1ncsc1CCOC(=O)C12CC3CC(CC(C3)C1)C2	inconclusive: -30.3%
Cc1cccc(C2CC(c3ccc(Cl)cc3)Nc3nc(N)nn32)c1 (configuration not stated)	inconclusive: -31.3%
Cc1cc(-c2n[nH]c(=S)n2/N=C/c2sccc2C)n[nH]1	inactive: -22.8%
O=C(NCCCN1CCCC1=O)c1ccc2c(=O)n(Cc3ccco3)c(=S)[nH]c2c1	inconclusive: -42.1%
CCN(CC)C(=O)CSc1nnc(-c2ccco2)o1	inconclusive: -41.8%
O=C(NC1CCCCC1)c1sc(N2CCOCC2)nc1-c1ccccc1	inactive: 41.5%
Cn1nnnc1Sc1ncnc2scc(-c3ccc(F)cc3)c12	inconclusive: -50.8%
C(=N\n1cnnc1)/c1cn(Cc2ccccc2)c2ccccc12	inactive: -4.83%
COc1ccc(C2=NOC(C(=O)Nc3ccc(C(C)=O)cc3)C2)cc1OC (configuration not stated)	inconclusive: -38.8%
CN(C)c1ccc(C(c2nnnn2C(C)(C)C)N2CCN(C(=O)c3ccco3)CC2)cc1 (configuration not stated)	inactive: 38.2%
Cc1ccc(CNC(=O)c2cc3c(=O)n4ccccc4nc3n(Cc3ccco3)c2=N)cc1	inconclusive: -32.2%
Cc1ccc(NC(=O)/C(C#N)=C/c2ccc(Sc3nc(C)cc(C)n3)o2)cc1	inconclusive: -36.3%
CC1CCN(c2nc3c(c(=O)n(C)c(=O)n3C)n2CCSc2nc3ccccc3o2)CC1	inconclusive: -60.3%
CCCn1c(N2CCN(Cc3cccc(C)c3)CC2)nc2c1c(=O)[nH]c(=O)n2C	inactive: 10.4%
Cc1nc(NC(=O)CSc2ccc(-c3nc4ccccc4[nH]3)cn2)sc1C	inconclusive: -47.5%
CN(C(=O)c1cc(-n2cnnc2)ccc1Cl)c1ccccc1	inconclusive: -42.5%
N#Cc1nc(-c2cccs2)oc1NCc1ccc(Cl)cc1	inconclusive: -53%

Structure (SMILES)	activity change (PNC), negative = inhibition
COc1ccc(C(=O)N2CCN(Cc3ccccc3C)CC2)cc1OC	inconclusive: -44.3%
CCN(CC)c1ccc(NC(=O)c2cccc(C)c2)cc1S(=O)(=O)Nc1ccccc1OC	inconclusive: -46.5%
Cc1ccc(NC(=O)C(C)N2CCOCC2)c(C(=O)c2ccccc2)c1 (configuration not stated)	inconclusive: -55.7%
CCCC(=O)Nc1cc(Cl)ccc1N1CCN(C(=O)CC)CC1	inconclusive: -38.6%
COc1ccc(-c2cc(-c3ccccc3)n3ncnc3n2)cc1	inconclusive: -38.6%
COCC(C)n1c(SCC(=O)N2CCc3ccccc3C2)nc2ccccc2c1=O (configuration not stated)	active: -121%
CN(C)CC(C(=O)c1ccccc1)c1ccccc1 (configuration not stated)	inconclusive: -38.9%
Cc1ccc(SC(C)C(=O)NCCC2=CCCCC2)cc1 (configuration not stated)	inconclusive: -61.1%
COc1cc(/C=C/C(=O)c2cccc([N+](=O)[O-])c2)cc(OC)c1OC	inactive: -27.3%
Cc1cccc(NS(=O)(=O)c2ccc(Br)s2)n1	inconclusive: -42.3%
Cc1cccc2cc(CN(Cc3ccc(F)cc3)C(=O)N3CCOCC3)c(=O)[nH]c12	inconclusive: -41.2%
CCOC(=O)c1sc(=S)n(-c2ccc(C)cc2)c1SC	inconclusive: -52.2%
O=C(Cn1nnc(-c2ccncc2)n1)Nc1ccc2c(c1)CCC2	inconclusive: -52.8%
CCOC(=O)c1c(C)n(-c2ccc(OC)cc2)c2c(C/C(C)=N/O)c(Br)c(OC)c(O)c12	inconclusive: -34.2%
CCOC(=O)C1=C(O)CSC1=Nc1ccc(Cl)cc1	inconclusive: -75.3%
COC(=O)c1[nH]nc(C(=O)OC(C)(C)C)c1-c1ccccc1	inconclusive: -52.6%
O=C(CN(C(=O)CCC(=O)Nc1nccs1)c1cccc(F)c1)NCC1CCCO1 (configuration not stated)	inconclusive: -64.1%
COc1cc(OC)cc(-c2nnc(SCc3cccc(C(=O)O)c3)o2)c1	inconclusive: -47.3%
COCCNC(=O)CN(c1ccccc1OC)S(C)(=O)=O	inconclusive: -37.5%

17 structures from above, sorted by SMILES length, smallest number first:
Structure (SMILES)	activity change (PNC), negative = inhibition
CN(C)CC(C(=O)c1ccccc1)c1ccccc1 (configuration not stated)	inconclusive: -38.9%
Cc1cccc(NS(=O)(=O)c2ccc(Br)s2)n1	inconclusive: -42.3%
CCOC(=O)C1=C(O)CSC1=Nc1ccc(Cl)cc1	inconclusive: -75.3%
N#Cc1nc(-c2cccs2)oc1NCc1ccc(Cl)cc1	inconclusive: -53%
CCOC(=O)c1sc(=S)n(-c2ccc(C)cc2)c1SC	inconclusive: -52.2%
COc1ccc(-c2cc(-c3ccccc3)n3ncnc3n2)cc1	inconclusive: -38.6%
CCCC(=O)Nc1cc(Cl)ccc1N1CCN(C(=O)CC)CC1	inconclusive: -38.6%
COc1ccc(C(=O)N2CCN(Cc3ccccc3C)CC2)cc1OC	inconclusive: -44.3%
O=C(Cn1nnc(-c2ccncc2)n1)Nc1ccc2c(c1)CCC2	inconclusive: -52.8%
COC(=O)c1[nH]nc(C(=O)OC(C)(C)C)c1-c1ccccc1	inconclusive: -52.6%
Cc1ccc(NC(=O)C(C)N2CCOCC2)c(C(=O)c2ccccc2)c1 (configuration not stated)	inconclusive: -55.7%
COCC(C)n1c(SCC(=O)N2CCc3ccccc3C2)nc2ccccc2c1=O (configuration not stated)	active: -121%
O=C(CN(C(=O)CCC(=O)Nc1nccs1)c1cccc(F)c1)NCC1CCCO1 (configuration not stated)	inconclusive: -64.1%
COc1cc(/C=C/C(=O)c2cccc([N+](=O)[O-])c2)cc(OC)c1OC	inactive: -27.3%
Cc1cccc2cc(CN(Cc3ccc(F)cc3)C(=O)N3CCOCC3)c(=O)[nH]c12	inconclusive: -41.2%
CCN(CC)c1ccc(NC(=O)c2cccc(C)c2)cc1S(=O)(=O)Nc1ccccc1OC	inconclusive: -46.5%
CCOC(=O)c1c(C)n(-c2ccc(OC)cc2)c2c(C/C(C)=N/O)c(Br)c(OC)c(O)c12	inconclusive: -34.2%

Continued:

Structure (SMILES)	activity change (PNC), negative = inhibition
O=S(=O)(NCCSc1ccccc1)c1ccc2c(c1)OCCO2	inactive: 41.9%
O=CNCC(=O)NCCc1ccc(Cl)cc1	inconclusive: -43.7%
Cc1ccc2cc(C=C(C#N)C#N)c(N3CCCCC3)nc2c1	inactive: -11.3%
Fc1ccc(-c2nnc(-c3ccc(Cl)cc3Cl)o2)cc1	inconclusive: -53.9%
Cc1ccc(-c2ccc(CCC(=O)O)n2NC(=O)c2ccco2)cc1	inconclusive: -60.7%
O=C1CCCC(=O)N1c1ccc(N2CCN(c3ccc([N+](=O)[O-])cc3)CC2)c([N+](=O)[O-])c1	inactive: 18.3%
COc1ccc(OC)c(C2/C(=C(/O)c3ccc(C)cc3)C(=O)C(=O)N2Cc2ccco2)c1 (configuration not stated)	inconclusive: -58%
O=C(O)C1C2C=CC(O2)C1C(=O)Nc1ccc2c(c1)OCCO2 (configuration not stated)	inactive: -11.1%
Cc1cc(NC(=O)c2cc3ccccc3oc2=O)no1	inactive: -10.1%
O=C(Nc1ccccc1)c1nnsc1S(=O)(=O)c1ccc(Cl)cc1	inconclusive: -67.1%
C=CCN(C(=O)CCC(=O)Nc1cc(C)on1)C(C(=O)NC(C)(C)C)c1cccc(OC)c1OC (configuration not stated)	inconclusive: -32.8%
CCN(CC)CCN1C(=O)C(O)=C(C(=O)c2cccs2)C1c1ccccn1 (configuration not stated)	inactive: 16%
O=C(CSc1nnnn1Cc1ccccc1)c1ccccc1	inactive: -18.1%
COC(=O)c1ccc(-n2nnnc2SCC(=O)N2CCCCC2)cc1	inactive: -14.3%
COc1ccc(OCc2cccc(C(=O)NN)c2)cc1	inconclusive: -35.8%
COc1cc(NS(=O)(=O)c2ccc(NC(=S)NC(=O)C3CCCC3)cc2)nc(OC)n1	inconclusive: -53%
CC(Oc1ccccc1)C(=O)NC1CCN(Cc2ccccc2)CC1 (configuration not stated)	active: -84.1%
O=[N+]([O-])c1ccc(N2CCNCC2)cc1Sc1nc2ccccc2[nH]1	inconclusive: -37.8%
Cc1noc(C)c1CSc1ccccc1C(=O)Nc1nccs1	inactive: -16.8%
